Data as given in patent US20250122502A1, “Bifunctional Molecules and Methods of Using Thereof” (FLAGSHIP PIONEERING, INC., priority 2021, published 2025).
Some results were stated once for a whole list of compounds, not compound by compound.

Tested on: MYC expression in HEK293T cells
Assay: MYC expression by qPCR after RNAiMax transfection
Type: cell-based, human
Conditions: 133 nM, 24 hours
Experimental: HEK293T cells were seeded at 30 k cells/well in a 96 well tissue culture vessel day before transfection. The next day cells were transfected with 400, 200, 100, 50 nM of PVT1 ASO1-JQ1 with Lipofectamine RNAiMax (ThermoFisher Cat #13778150). […] Transfected cells were allowed to recover and were harvested after 24 hours. MYC expression was measured by RNA level using qPCR analysis after transfection with each of the bi-functional molecule or control molecules. Cell samples for qPCR analysis were prepared by Cells to Ct 1 Step TaqMan Kit (ThermoFisher A25602) following manufacturer's recommendations. qPCR assays were performed using Cells to Ct qPCR master mix, gene specific TaqMan probe (ThermoFisher), and Cells to Ct cell lysate. Relative levels of MYC were normalized to β-actin as a stably expressed control. MYC TaqMan probe: […] ACTB TaqMan probe: […] During qPCR amplification, FAM fluorescence intensity for each target gene was recorded by QuantStudio7 qPCR instrument (ThermoFisher Scientific) as a measurement of the amount of double-stranded DNA produced during each PCR cycle. Ct values for each gene in each sample were computed by the instrument software based on the amplification curves, and used to determine relative expression values for target and β-actin in each sample.

Substance | increase in MYC expression
MYC ASO6-JQ1: SEQ ID NO: 45 MOE ASO, linker 2, JQ1 (antisense GCATGAATACGTTAGAAAGG; MOE; linker 2; JQ1 conjugate) | more than 2 fold
MYC ASO3-JQ1: SEQ ID NO: 42 MOE ASO, linker 2, JQ1 (antisense CGGAGACGCACTTAGTGAAC; MOE; linker 2; JQ1 conjugate) | more than 2 fold
MYC ASO4-JQ1: SEQ ID NO: 43 MOE ASO, linker 2, JQ1 (antisense GTCCTAACACCTCTAGAGAC; MOE; linker 2; JQ1 conjugate) | more than 2 fold
